Laboratory results reported in PubChem BioAssay AID588590 (National Center for Advancing Translational Sciences (NCATS), 2011).
Screen size: about 390,000 compounds; about 4,000 (1%) were called active. The shares of active, inactive and inconclusive entries below differ from those in the screen. The call rests on the fitted dose curve; in most records, active means well fitted inhibition curve with a large enough effect; inconclusive means small, poorly fitted or top-dose-only effect, or another doubt; inactive means no such curve, though single readings can be large or run the other way. Where the call is inconclusive, the potency comes from a doubtful curve fit.

Sequences of proteins named here, by UniProt entry; tags and fusion partners are left off. A change or cut given only in a name is not applied to a line headed by its entry.
UniProt Q9UNA4: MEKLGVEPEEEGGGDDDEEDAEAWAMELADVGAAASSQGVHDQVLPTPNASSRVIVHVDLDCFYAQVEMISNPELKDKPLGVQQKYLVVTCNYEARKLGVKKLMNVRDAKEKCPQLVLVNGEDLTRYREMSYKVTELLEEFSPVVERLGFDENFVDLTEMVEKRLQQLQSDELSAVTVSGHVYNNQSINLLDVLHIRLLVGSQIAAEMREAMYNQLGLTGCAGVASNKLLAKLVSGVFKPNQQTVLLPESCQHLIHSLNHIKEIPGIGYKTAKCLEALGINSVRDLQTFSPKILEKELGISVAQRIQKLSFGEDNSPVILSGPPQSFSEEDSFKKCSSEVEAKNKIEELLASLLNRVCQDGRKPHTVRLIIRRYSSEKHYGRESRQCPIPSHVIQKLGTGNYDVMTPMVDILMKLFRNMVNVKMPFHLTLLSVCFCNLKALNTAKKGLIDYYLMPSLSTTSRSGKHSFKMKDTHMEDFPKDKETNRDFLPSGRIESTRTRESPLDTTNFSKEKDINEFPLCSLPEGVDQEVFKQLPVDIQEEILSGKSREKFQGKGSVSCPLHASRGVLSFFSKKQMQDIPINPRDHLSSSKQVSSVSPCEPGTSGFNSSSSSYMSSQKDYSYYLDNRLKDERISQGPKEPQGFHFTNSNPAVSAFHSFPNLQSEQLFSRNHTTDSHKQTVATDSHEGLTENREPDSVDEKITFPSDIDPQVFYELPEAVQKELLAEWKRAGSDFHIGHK

molecular target: DNA polymerase iota (Homo sapiens) (UniProt Q9UNA4); assay: qHTS for Inhibitors of Polymerase Iota; details: Pol iota fluorescent replication assay, 10 min; series mostly up to 115 µM; activity, negative = inhibition: at the top concentration
Text: DNA polymerases, such as Pol iota, are specifically involved in DNA repair. Pol iota specifically plays an important role in translesion synthesis, where the normal high-fidelity DNA polymerases cannot proceed and DNA synthesis stalls. […] Thus, while pol eta's (and most likely iota's) normal function is to protect humans against the deleterious consequences of DNA damage, under certain conditions they can have deleterious effects on human health. As a consequence, we propose to utilize a high throughput replication assay to identify small molecule inhibitors of pol iota.
In a collaboration between the National Institute of Child Health & Human Development (NICHD) and NIH Chemical Genomics Center, a high-throughput, fluorescent screen was developed to screen the NIH Molecular Libraries Small Molecule Repository (MLSMR). This screen is used to identify inhibitors of pol iota.
NIH Chemical Genomics Center [NCGC]
NIH Molecular Libraries Probe Centers Network [MLPCN]
Assay Submitter (PI): Roger Woodgate, NICHD)
Three microliters of reagents (buffer in column 3 and 4 as negative control and 10 nM Pol iota in columns 1, 2, and 5-48) will be dispensed into 1,536-well black solid-bottomed plate. Compounds (23 nL) will be transferred via Kalypsys pin tool equipped with 1536-pin array. The plates will then be incubated for 15 min at room temperature, and 1 µL substrate (50 nM final concentration) will be added to start the reaction and kinetically read twice at 0 min and 10 min on the Viewlux reader.
Potency means the concentration at half of the fitted maximal effect.

| Compound | Potency | activity, negative = inhibition |
| --- | --- | --- |
| N#Cc1ccccc1S(=O)(=O)N1CCN(C(=O)c2cc3c(s2)CCC3)CC1 | inconclusive: 56.2 µM [inhibitor, partial curve, poor fit] | – |
| Cc1nc(-c2ccc(Cl)cc2)sc1C1(C)CC(c2ccc(Cl)cc2)=NO1 (stereo not given) | inconclusive: 12.6 µM [inhibitor, full curve, poor fit] | – |
| CC(C)OC(=O)CSc1n[nH]c(-c2cccnc2)n1 | – | inactive: 2.52% |
| COC(CNC(=O)C(=O)Nc1cc2c3c(c1)CCN3C(=O)CC2)OC | inconclusive: 89.1 µM [inhibitor, single point] | – |
| COc1ccccc1C(=O)NCCn1cc(SCC(=O)NCc2ccco2)c2ccccc21 | inconclusive: 17.8 µM [inhibitor, partial curve, poor fit] | – |
| CC(=O)CSc1nc(-c2ccccc2)[nH]c1S(=O)(=O)c1ccc(C)cc1 | inconclusive: 89.1 µM [inhibitor, single point] | – |
| CCn1cc(C(=O)N2CCN(c3ccccc3)CC2)c(=O)c2cc(S(=O)(=O)N(C)C3CCCCC3)ccc21 | – | inactive: 17.2% |
| Cc1oc(C)c2c(=O)ccc3c(c12)OC(N)=C(C#N)C3c1ccccc1 (stereo not given) | inconclusive: 112 µM [inhibitor, partial curve, poor fit] | – |
| CN(C)c1ccc(-c2ccc(C3C4C=CCCC4(C)C(=O)N3Cc3ccccc3)c(F)c2)cc1 (stereo not given) | inconclusive: 89.1 µM [inhibitor, single point] | – |
| Cc1ccc2c(=O)cc(C(=O)Nc3sc4c(c3C(=O)NCc3ccco3)CCCC4)oc2c1C | inconclusive: 89.1 µM [inhibitor, single point] | – |
| O=C(O)c1ccc(N/N=C/c2ccc(-c3cc(Cl)ccc3Cl)o2)cc1 | inconclusive: 25.1 µM [inhibitor, partial curve, poor fit] | – |
| O=C(N/N=C/c1coc2ccccc2c1=O)c1ccccc1 | – | inactive: 45.7% |
| O=C(CN1C(=O)CCSc2ccc(S(=O)(=O)N3CCCC3)cc21)Nc1cccc(Cl)c1 | – | inactive: 24.3% |
| Cc1ccc(OC(C)C(=O)N(Cc2cccs2)C2CCS(=O)(=O)C2)cc1C (stereo not given) | inconclusive: 17.8 µM [inhibitor, partial curve, poor fit] | – |
| Cn1c(C(=O)OCC(=O)NCc2ccco2)cc2sccc21 | inconclusive: 56.2 µM [inhibitor, partial curve, poor fit] | – |
| O=C(O)c1ccc(-n2cccc2/C=N\NC(=O)c2cc3cc(Br)ccc3o2)cc1 | active: 7.08 µM | – |
| COc1ccccc1C(=O)NCC(=O)N/N=C/c1cc(Br)ccc1OC(=O)/C=C\c1ccco1 | inconclusive: 25.1 µM [inhibitor, full curve, poor fit] | – |
| O=C1C[C@@H]2c3c(cccc3CN1Cc1ccc(Cl)cc1)C[C@@H](O)[C@H]2O | – | inactive: 17.4% |
| Cc1ccc(C)c(NC(=O)CSc2ncnc3nc[nH]c23)c1 | inconclusive: 79.4 µM [inhibitor, single point] | – |
| Cc1c(CN2CCC(n3nccc3NC(=O)C3CC3)CC2)[nH]c2ccccc12 | – | inactive: 20.3% |

For convenience, some entries already given.

| Compound | Potency | activity, negative = inhibition |
| --- | --- | --- |
| CC(C)OC(=O)CSc1n[nH]c(-c2cccnc2)n1 | – | inactive: 2.52% |
| COC(CNC(=O)C(=O)Nc1cc2c3c(c1)CCN3C(=O)CC2)OC | inconclusive: 89.1 µM [inhibitor, single point] | – |
| COc1ccccc1C(=O)NCCn1cc(SCC(=O)NCc2ccco2)c2ccccc21 | inconclusive: 17.8 µM [inhibitor, partial curve, poor fit] | – |
| CC(=O)CSc1nc(-c2ccccc2)[nH]c1S(=O)(=O)c1ccc(C)cc1 | inconclusive: 89.1 µM [inhibitor, single point] | – |
| CCn1cc(C(=O)N2CCN(c3ccccc3)CC2)c(=O)c2cc(S(=O)(=O)N(C)C3CCCCC3)ccc21 | – | inactive: 17.2% |
| Cc1oc(C)c2c(=O)ccc3c(c12)OC(N)=C(C#N)C3c1ccccc1 (stereo not given) | inconclusive: 112 µM [inhibitor, partial curve, poor fit] | – |
| CN(C)c1ccc(-c2ccc(C3C4C=CCCC4(C)C(=O)N3Cc3ccccc3)c(F)c2)cc1 (stereo not given) | inconclusive: 89.1 µM [inhibitor, single point] | – |
| Cc1ccc2c(=O)cc(C(=O)Nc3sc4c(c3C(=O)NCc3ccco3)CCCC4)oc2c1C | inconclusive: 89.1 µM [inhibitor, single point] | – |

(further entries)

| Compound | Potency | activity, negative = inhibition |
| --- | --- | --- |
| COc1cc(O)cc(O)c1C(=O)/C=C/c1ccccc1 | inconclusive: 14.1 µM [inhibitor, partial curve, poor fit] | – |
| Cc1ccc2nc(Cl)c(C3CC(c4cccs4)=NN3C(=O)CCCC(=O)O)cc2c1 (stereo not given) | inconclusive: 79.4 µM [inhibitor, partial curve, poor fit] | – |
| O=C(OCc1c(-c2ccccc2)ncc2ccccc12)c1cccs1 | inconclusive: 12.6 µM [inhibitor, full curve, poor fit] | – |
| COCCn1c(-c2ccccc2)nc2oc3cc(OC)ccc3c(=O)c2c1=O | inconclusive: 100 µM [inhibitor, partial curve, poor fit] | – |
| CC(=O)N1CCc2c(sc3c2c(=O)n(-c2ccccc2Cl)c(=O)n3C)C1 | – | inactive: 18.6% |
| CC1CCc2c(C(=O)NCCN3CCOCC3)csc2C1 (stereo not given) | inconclusive: 70.8 µM [inhibitor, partial curve, poor fit] | – |
| O=C(c1csc2ccccc12)N1CCCCCC1 | inconclusive: 25.1 µM [inhibitor, single point] | – |
| COc1ccc(C(=O)Nc2cccc3c2CCCC3)c(OC)c1 | inconclusive: 89.1 µM [inhibitor, single point] | – |
| COc1ccc(/C=N/NC(=O)c2cccs2)c2ccccc12 | inconclusive: 35.5 µM [inhibitor, partial curve, poor fit] | – |
| Cc1cccc(NC(=O)C2CCC(CNS(=O)(=O)c3ccc4c(c3)CCCC(=O)N4)CC2)c1C (stereo not given) | – | inactive: -9.86% |
| CCOC(=O)/C(C#N)=C\c1ccc(N2CCN(C/C=C/c3ccccc3)CC2)cc1 | inconclusive: 35.5 µM [inhibitor, partial curve] | – |
| O=c1/c(=C\c2cc([N+](=O)[O-])cc([N+](=O)[O-])c2O)sc2nc3ccccc3n12 | inconclusive: 15.8 µM [inhibitor, partial curve, poor fit] | – |
| Cc1ccc(-c2nnn(CC(=O)N(Cc3ccco3)C(C(=O)NC(C)(C)C)c3cccs3)n2)o1 (stereo not given) | inconclusive: 22.4 µM [inhibitor, partial curve, poor fit] | – |
| Cc1ccc(CC(=O)NCC(O)c2ccccc2)cc1 (stereo not given) | inconclusive: 39.8 µM [inhibitor, full curve, poor fit] | – |
| CN(Cc1ccccc1)C(=O)CCS(=O)(=O)c1ccc2c(c1)NC(=O)CS2 | inconclusive: 56.2 µM [inhibitor, single point] | – |
| COc1ccc(/C=C\c2nc(=O)c3ccccc3o2)cc1 | – | inactive: 29.2% |
| COc1ccc(OC)c(-n2c(-c3ccc(O)cc3O)n[nH]c2=S)c1 | inconclusive: 17.8 µM [inhibitor, full curve, poor fit] | – |
| Cc1cc(C)cc(OCC(=O)NCC2CCCO2)c1 (stereo not given) | inconclusive: 63.1 µM [inhibitor, partial curve, poor fit] | – |
| Cc1ccc(C)c(-n2sc3ccc(F)cc3c2=O)c1 | inconclusive: 39.8 µM [inhibitor, single point] | – |
| COc1cc(Nc2nc(-c3ccccc3)c3cc(C)ccc3n2)cc(OC)c1OC | inconclusive: 50.1 µM [inhibitor, partial curve, poor fit] | – |
